The list shows a part of the results. These are further read-outs of the screen, such as a control signal, another cell line or another target. No call is given for them. Compounds called inactive in the main read-out are mostly missing here. Words in brackets tell the shape of the fitted curve; partial curves, single points and poor fits give uncertain potencies.
Assay: qHTS Assay for Lipid Storage Modulators in Drosophila S3 Cells;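 as to cell number change: cells counted by Cell Tracker Red CMTPX staining in the red channel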
Details: BODIPY lipid droplet fluorescence, 18-24 h; for cell number change: measured here: cell count max response, cells fed with added oleic acid
Method in brief: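 Drosophila S3 cells got compounds at several concentrations plus oleic acid (400 uM solution). Laser-scanning cytometry with 488 nm excitation read lipid droplets at 500-530 nm and cells at 575-640 nm. Percent activity was relative to 20 uM Triacsin C.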

[1] = measured here: cell number channel AC50, cells fed with added oleic acid
[2] = measured here: lipid fluorescence (Fed channel) AC50, cells fed with added oleic acid

Row | SMILES | cell number change [%] | AC50 [1] | AC50 [2]
1 | Cc1ccc(C(=O)c2c(NC(=O)c3ccccc3C)sc(C)c2C)cc1 | 119 | 16.4 µM [rising, partial curve] | 8.2 µM [rising, partial curve]
2 | COC(=O)c1cc(N=Cc2c(O)c3ccccc3oc2=O)cc(C(=O)OC)c1 | -25.4 | – | 3.66 µM [falling, full curve, poor fit]
3 | CCCCN(CCCC)S(=O)(=O)c1ccc(C(=O)Nc2nnc(CSC)o2)cc1 | 8.23 | – | –
4 | C=CCNC(=S)NNC(=O)c1cccn(Cc2ccc(Cl)c(Cl)c2)c1=O | 2.65 | 0.651 µM [falling, full curve, poor fit] | 1.3 µM [falling, full curve]
5 | CCCc1nc(SCC(=O)Nc2ccccc2)c2c(=O)n(C)c(=O)n(C)c2n1 | 60.3 | 0.146 µM [rising, full curve, poor fit] | 14.6 µM [rising, partial curve, poor fit]
6 | Cc1cc(SCc2ccc(C(F)(F)F)cc2)nc(=O)[nH]1 | – | – | 29.1 µM [rising, single point]
7 | COc1ccc(N2C(=O)CSC2c2ccc(F)c(F)c2)cc1 (stereo not drawn) | 57.7 | 13 µM [rising, partial curve, poor fit] | –
8 | COc1ccc(OCCNC(=O)c2cc(C3CC3)nc3c2cnn3C(C)C)cc1 | 11.1 | – | 32.6 µM [falling, single point]
9 | CCN(CC(=O)Nc1cc(C)nn1-c1nc(C)cc(C)n1)Cc1ccccc1 | 144 | 10.3 µM [rising, partial curve] | 2.59 µM [rising, partial curve]
10 | NC(=O)C1CCN(Cc2cccc(OCc3ccccc3)c2)CC1 | 17.1 | – | 0.058 µM [rising, full curve, poor fit]
11 | CCOC(=O)C1=C(C)NC2=C(C(=O)CC(c3ccc(OC)c(OC)c3)C2)C1c1ccc(C)o1 (stereo not drawn) | -11.4 | – | 0.366 µM [falling, single point]
12 | Cc1ccc(N/C(CSC(N)=O)=N\S(=O)(=O)c2ccc(C)cc2)cc1 | -24.3 | – | 5.8 µM [falling, full curve]
13 | COc1cc2c(cc1NC(=O)C(C)Sc1ccc(NC(C)=O)cc1)oc1ccccc12 (stereo not drawn) | 1.49 | – | 0.0184 µM [rising, full curve, poor fit]
14 | CCN(C(=O)CN1C(=O)NC2(CCc3ccccc32)C1=O)C1CCS(=O)(=O)C1 (stereo not drawn) | 25.9 | – | 16.4 µM [rising, single point]
15 | Cc1ccc(C)c(S(=O)(=O)NCC(=O)Nc2ccc3c(c2)OCO3)c1 | 11.3 | – | 6.51 µM [rising, full curve, poor fit]
16 | CCOc1ccc(-c2nc(N)ncc2-c2ccc(Cl)cc2)c(O)c1 | -73.4 | 8.2 µM [falling, partial curve] | –
17 | Cc1cc(C)nc(SCC(=O)N/N=C/c2cccs2)n1 | 10.9 | – | 23.1 µM [rising, partial curve, poor fit]
18 | Cc1ccc(CN(C(=O)c2ccc(Cl)c([N+](=O)[O-])c2)C2CCS(=O)(=O)C2)o1 (stereo not drawn) | -2.45 | – | –
19 | O=C(NC1CCCC1)C(c1cccnc1)N(C(=O)c1ccco1)c1cccc(F)c1 (stereo not drawn) | -3.85 | – | –
20 | NC(=O)c1nsc(C(=O)N(CC(=O)NCc2ccccc2)c2ccc(F)cc2)c1N | 16.7 | – | –

Row | SMILES | cell number change [%] | AC50 [1] | AC50 [2]
21 | CCOC(=O)N1CCN(C2=CC(=O)OC23CCCCC3)CC1 | 12.1 | – | 6.51 µM [falling, single point]
22 | Cc1cc(OCC(=O)Nc2ccc(N3CCN(C(=O)c4ccco4)CC3)cc2)cc(C)c1Cl | – | – | 1.46 µM [rising, partial curve]
23 | COc1ccc(/C=N/NC(=O)CCCOc2ccc(Cl)cc2Cl)cc1 | -21.4 | – | 29.1 µM [falling, partial curve]
24 | Cc1ccc(Cl)cc1-c1ccc(C=Nc2ccc(N3CCOCC3)cc2)o1 | 13.5 | 6.51 µM [rising, single point] | 9.2 µM [rising, single point]
25 | Fc1ccc(Oc2nc(-c3ccccc3)nnc2C(F)(F)F)cc1 | 1.12 | 1.64 µM [rising, partial curve] | 1.64 µM [rising, partial curve]
26 | CCn1c(SCC(=O)N2CCCC2)nc2ccccc21 | – | – | 0.58 µM [falling, full curve, poor fit]
27 | CCc1nnc(NC(=O)CSc2ccc(-c3ccccc3OC)nn2)s1 | 33.1 | 23.1 µM [rising, single point] | –
28 | Cc1nccn1CCCNC(=O)c1nc(Cn2cc([N+](=O)[O-])cn2)no1 | 31.4 | 0.461 µM [rising, full curve, poor fit] | –
29 | CCO/C=C1\C(=O)N(c2ccccc2)C(=O)c2ccccc21 | 38.2 | 0.651 µM [rising, partial curve] | 0.411 µM [falling, partial curve, poor fit]
30 | Cc1onc(-c2c(F)cccc2Cl)c1C(=O)NNC(=O)C1CCN(Cc2cccc(F)c2)CC1 | – | 6.51 µM [falling, single point] | –
31 | CNC(=O)CN(c1cc(OCCOC)c(Cl)cc1Cl)S(=O)(=O)c1ccccc1 | – | 0.731 µM [rising, single point] | –
32 | O=C(Cc1ccccc1)Nc1ccccc1Oc1ccccc1 | -51.2 | 29.1 µM [falling, single point] | 2.31 µM [rising, full curve]
33 | CC1CCCCC1NC(=O)COC(=O)c1cc(=O)c2ccccc2o1 (stereo not drawn) | -0.677 | 0.13 µM [rising, full curve, poor fit] | 1.84 µM [rising, partial curve]
34 | CCOC(=O)N1CCC(NC(=O)C(CC(C)C)NC(=O)C2CCC(C)CC2)CC1 (stereo not drawn) | 31.9 | 11.6 µM [rising, single point] | 3.66 µM [falling, partial curve]
35 | CC(=O)C1=C(C)Nc2ncnn2C1c1ccc(F)cc1 (stereo not drawn) | 9.19 | – | 29.1 µM [rising, single point]
36 | Cc1ccc(NC(=O)N2CCCCCC2)cc1C | -3.18 | – | –
37 | O=C(NC1CCCCCCC1)c1ccc2c(c1)N(Cc1ccc(F)cc1)C(=O)CS2=O (stereo not drawn) | 10.4 | – | 2.06 µM [rising, full curve]
38 | COc1ccc(OC)c(Nc2cc(C)c3ccccc3n2)c1 | -0.835 | – | 10.3 µM [falling, partial curve, poor fit]
39 | CCNC(=S)NNC(=O)c1cc(-c2cccc(OCC)c2)nc2ccccc12 | 71 | 20.6 µM [rising, single point] | 5.17 µM [rising, full curve]
40 | COc1ccc2[nH]c(C(=O)N(Cc3ccccn3)Cc3ccccn3)cc2c1 | -15.9 | – | 23.1 µM [falling, single point]

Row | SMILES | cell number change [%] | AC50 [1] | AC50 [2]
41 | Cc1cc(=O)[nH]c(N/N=C/c2c(C)nn(-c3ccccc3Cl)c2Cl)n1 | -44.9 | – | –
42 | CCCn1nnc(NC(=S)NC(=O)CC)n1 | -1.03 | 6.51 µM [falling, single point] | 4.11 µM [falling, full curve]
43 | CCC(C)(C)n1nnnc1C(C(C)C)N(CCCO)Cc1cc2cc(C)ccc2[nH]c1=O (stereo not drawn) | -4.37 | – | 3.26 µM [rising, single point]
44 | Cc1ccccc1Cn1ccc(NC(=O)CCSc2nc(-c3ccco3)cc(C(F)(F)F)n2)n1 | -21 | – | 16.4 µM [falling, partial curve]
45 | CCCN1CN(Cc2ccco2)c2nc3ccccc3n2C1 | 3.83 | – | 0.651 µM [rising, single point]
46 | CC(=O)c1cc(C)ccc1OC(=O)c1ccco1 | -30.3 | 0.731 µM [falling, full curve, poor fit] | 0.82 µM [falling, full curve, poor fit]
47 | CCOC(=O)CSc1nc2ccccc2c(=O)n1NC(=O)c1ccccc1 | 15.7 | – | 11.6 µM [rising, partial curve, poor fit]
48 | CCN(CC)S(=O)(=O)c1ccc(F)c(C(=O)NCCCN2CCOCC2)c1 | 9.44 | – | 0.00461 µM [falling, full curve, poor fit]
49 | OC(COCCOc1ccc(Br)cc1)CN1CCCCC1 (stereo not drawn) | -66.7 | 29.1 µM [falling, single point] | –
50 | COc1ccc([N+](=O)[O-])cc1N(CC(O)CN1C(=O)NC(C)(C)C1=O)S(=O)(=O)c1ccccc1 (stereo not drawn) | -27 | – | 29.1 µM [falling, single point]
51 | Cc1ccc(N2CCN(C(=O)c3nn(C)c4c3CS(=O)(=O)c3ccccc3-4)CC2)c(C)c1 | -28.8 | – | –
52 | CCN(CC)CCCN(CC(=O)N(C)Cc1ccccc1)C(=O)c1ccc([N+](=O)[O-])cc1 | 18.2 | – | 7.31 µM [rising, partial curve, poor fit]
53 | O=C(O)c1cccc(S(=O)(=O)NCc2cccs2)c1 | – | – | 0.092 µM [falling, full curve, poor fit]
54 | COC(=O)c1ccccc1Nc1cc(C)nc2nc(C)nn12 | 32.1 | 29.1 µM [rising, single point] | 8.2 µM [rising, partial curve]
55 | O=C(CSc1nc2ccccc2nc1N1CCCCC1)Nc1ccc(F)cc1 | 6.05 | – | –
56 | COc1ccccc1C(=O)NC(=O)COC(=O)c1cccc(OC(F)F)c1 | 1.62 | – | –
57 | CCCn1c(SCC(=O)c2ccc3c(c2)OCCO3)n[nH]c1=O | – | – | 29.1 µM [rising, partial curve]
58 | O=C(COC(=O)C1CCN(S(=O)(=O)c2cccs2)CC1)NCc1ccccc1 | 0.519 | – | –

Copied from the list:
O=C(CSc1nc2ccccc2nc1N1CCCCC1)Nc1ccc(F)cc1 – cell number change [%]: 6.05
COc1ccccc1C(=O)NC(=O)COC(=O)c1cccc(OC(F)F)c1 – cell number change [%]: 1.62
O=C(O)c1cccc(S(=O)(=O)NCc2cccs2)c1 – AC50 [2]: 0.092 µM [falling, full curve, poor fit]
